In publication PMC8178753:
The exact form of at least one protein or probe is not confirmed.

Tested on: PkKKT2a central domain (551-679) C646A C649A (Perkinsela sp. CCAP 1560/4)
Assay: fluorescence anisotropy
Conditions: fluorescein (6-FAMK) in place of T37 of forward strand, FA: 1 nM FAM-dsDNA, 20 min RT, read at 25°C, recombinant protein, label: internal 6-FAM, letters put together from the description

“CAATATGTAAGGTGTTTTGGTGTAAAACACGCATTCTTGCATAACATGCA (double strand) [50 mer CEN FAM (BA1674)]”: binds.
